# Assay results: PMC10163288
# The other results are listed elsewhere or left out.
# B1: il10ra_site1_normal_mot_HHH_b2_00277_af2_000000172_0001_1_17_H_._HHH_b2_07191_0001_0000200011_0000001_0_af2pred_0001 (protein)
# chain: SSSSDLEEKIEEVEEKVREALERGDDELAEELVRRLSKEVARARDPEASHLVTRLYSLVNSSSSS
# B2: il10ra_site1_sap_26_mot_HHH_b2_03328_af2_000000127_0001_1_19_H_._HHH_b1_04763_0001_0000200024_0000001_0_0001 (protein)
# chain: SSSSDETQEALRLVIEAFRLLARGDPEEAKRVLEEALELAEEAGTPLAEVIRNLLEAIEASSSSS
# B3: il10ra_site1_normal_mot_HHH_b2_01397_000000078_0001_23_39_H_._HHH_b1_06054_0001_0000100001_0000002_0 (protein)
# chain: SSSSDEEIRRYVKLTARFARFLLEEGDERAARRLVHAAADIARRNNDPELLRELEELLEELSSSS
# B4: il10ra_site1_normal_mot_HHH_b2_02736_000000092_0001_22_38_H_._HHH_b1_00249_af2_0001_0000100002_0000001_0 (protein)
# chain: SSSSDERAQEVYELLREAIELSRKDPEKAEEVAEEALELAEELNNEVLAFVIRFLLREIRGSSSS
# B5: il10ra_site1_normal_mot_HHH_b1_05056_000000217_0001_1_20_H_._HHH_b1_05974_af2_0001_0000300011_0000001_0 (protein)
# chain: SSSSDEEDEERVEELLEEAKHVDQEEVAELLLEALRLALELQDPELLRLVWEVVKELARKSSSSS
# B6: il10ra_site1_normal_mot_3c6ad1a4bc7d4f5cf55cee527202d42a_0001_000000108_0001_32_49_H_._HHH_b1_02478_af2_0001_0000300018_0000001_0 (protein)
# chain: SSSSDKEEEIFQLRIRAYRAAQKGNEEEAQELLEKALKLAEEINDEAAREAVRLLLEELESSSSS
# B7: il10ra_site1_sap_24_mot_HHH_b2_06795_000000133_0001_42_56_H_._HHH_b1_08435_0001_0000300022_0000002_0_0001_af2pred_0001 (protein)
# chain: SSSSSSEEEQLERLLELIREALEAGDKEQARLAIRLAELVAKLLGNEEILEELEELHELLSSSSS
# B8: il10ra_site1_normal_mot_HHH_b2_06311_000000217_0001_1_16_H_._HHH_b1_07520_0001_0000300025_0000002_0_af2pred_0001 (protein)
# chain: SSSSSEAERAIRFLLRAVKELLKNGDPEAAKLALRFARLLAEQLNDPELRELVEEIEELIRSSSS
# B9: il10ra_site1_sap_24_mot_HHH_b1_05056_000000217_0001_1_20_H_._HHH_b1_04321_0001_0000100017_0000001_0_0001 (protein)
# chain: SSSSDEEDEEVLRLAREAFRLALRGNPEEARRVLEEAIEIAREIGNERALEMLERLLKTQSSSSS
# B10: il10ra_site1_normal_mot_HHH_b2_06857_af2_000000179_0001_42_54_H_._HHH_b2_01301_af2_0001_0000300025_0000001_0 (protein)
# chain: SSSSDEEAQEVYELIRRAAELHFNGNDEEAEEVAQKALELAEEAGNELLRWQIEFLLRLISSSSS
# B11: il10ra_site1_sap_10_mot_HHH_b2_07145_000000158_0001_24_40_H_._HHH_b2_04742_0001_0000200025_0000001_0_0001 (protein)
# chain: SSSSSEEVEELLEELRKALEEGDEELFVELFVRVSRAAQELNDHELAEEIQRLAIEFLALSSSSS
# B12: il10ra_site1_normal_mot_HHH_b2_00984_000000042_0001_1_20_H_._HHH_b1_03108_0001_0000200016_0000002_0 (protein)
# chain: SSSSSDLEERVEELLREAEELAENGDPREAARVLQEVTRFALENNNAELLQEIWKVIKELSSSSS
# B13: il10ra_site1_normal_mot_8756ee2cf497b5429c717dfc0c0bcfd6_0001_000000186_0001_1_13_H_._HHH_b2_02799_af2_0001_0000400017_0000001_0_af2pred_0001 (protein)
# chain: SSSSDHAEEVAEALREALELLREGDPERAQELVEEALELAEEANDAISEAQLRFLLEHIRGSSSS
# B14: il10ra_site1_sap_15_mot_HHH_b2_08265_af2_000000206_0001_22_38_H_._HHH_b1_07069_af2_0001_0000300008_0000001_0_0001 (protein)
# chain: SSSDKAAHRVYELLKEALELLAEGDPEEAERVLEEARELAEELGDHVMRRIIEFIERDIENSSSS
# B15: il10ra_site1_normal_mot_HHH_b1_02062_000000185_0001_1_20_H_._HHH_b1_02576_0001_0000500037_0000002_0 (protein)
# chain: SSSSTEERREIYELSRELARLISEGNEEEAEKVVEEVRRLIEELGNILLEFVLRQLERDLNSSSS
# B16: il10ra_site1_normal_mot_8756ee2cf497b5429c717dfc0c0bcfd6_0001_000000186_0001_1_13_H_._HHH_b2_00335_af2_0001_0000300021_0000001_0_af2pred_0001 (protein)
# chain: SSSSSDRLRELLELLRRIIELSRDGDPEEARKLIEEAQELAEELNDEVAKAILEFLEEHVNSSSS
# B17: il10ra_site1_normal_mot_HHH_b1_06128_000000102_0001_1_20_H_._HHH_b1_04396_0001_0000800047_0000001_0 (protein)
# chain: SSSSDEFSRLALRAARLFIRGDFEELEKVLEELEEVAEKLNDEAAERAVEQIERALRALESSSSS
# B18: il10ra_site1_sap_14_mot_HHH_b2_06864_af2_000000190_0001_1_20_H_._cd5f43eff521500bc79474903aa2b2a0_0001_1_0001_0000500018_0000001_0_0001 (protein)
# chain: SSSSTLEELTEAALRLAEQALEWGDPEAAERLLEALLKVLRAEGNEELVELVEELLEEVRNSSSS
# B19: il10ra_site1_sap_27_mot_HHH_b1_00999_000000080_0001_41_55_H_._HHH_b2_06597_0001_0000200012_0000001_0_0001 (protein)
# chain: SSSDTHEVYRLSKKIMELIYEGDREEAERLLEEAQEIAEELGDRVFKHALEIIERALEERFSSSS
# B20: il10ra_site1_normal_mot_HHH_b2_00943_af2_000000149_0001_1_17_H_._HHH_b1_07752_af2_0001_0000300008_0000001_0 (protein)
# chain: SSSSDNVEFLVRQAEEAAELAAEFNDKEKLEHILEILEVLLEQVGDPEVEEALELVEELLKSSSS
# B21: il10ra_site1_normal_mot_HHH_b2_04013_af2_000000040_0001_22_39_H_._HHH_b2_06566_0001_0000100002_0000002_0 (protein)
# chain: SSSSAEELFEAVRKAIEEALELLREGNPEEAEEVLEEALRLARENNNHALVFSLELAIQDVSSSS
# B22: il10ra_site1_normal_mot_HHH_b1_03559_000000151_0001_22_39_H_._HHH_b1_02435_af2_0001_0000100002_0000001_0 (protein)
# chain: SSSSSEEATKLLDEAIRLLSEGDFEEAEELLEEALRLARELGDESLARLIEITLRFAREAGSSSS
# B23: il10ra_site1_normal_mot_HHH_b2_03220_af2_000000223_0001_23_40_H_._HHH_b1_06566_0001_0000200018_0000001_0 (protein)
# chain: SSSSSEEVWELLRRALELLARGNPEEAEEVAREAERLAEERGSEVLLLAVEFLLRAIEEHSSSSS
# B24: il10ra_site1_sap_25_mot_HHH_b1_05370_000000138_0001_1_16_H_._HHH_b2_00447_0001_0000300028_0000001_0_0001 (protein)
# chain: SSSSDTEEVFRLIEEAMELLADGNPEEAEEVAEEALKLAEELNNELFRINIEFVLRDIQGSSSSS
# Molecular target: il10ra, Q13651
# Test: yeast display titration
row,Binder,apparent Kd
1,B1,inactive: no binding seen
2,B2,inactive: no binding seen
3,B3,inactive: no binding seen
4,B4,inactive: no binding seen
5,B5,inactive: no binding seen
6,B6,inactive: no binding seen
7,B7,inactive: no binding seen
8,B8,inactive: no binding seen
9,B9,inactive: no binding seen
10,B10,inactive: no binding seen
11,B11,inactive: no binding seen
12,B12,inactive: no binding seen
13,B13,inactive: no binding seen
14,B14,inactive: no binding seen
15,B15,inactive: no binding seen
16,B16,inactive: no binding seen
17,B17,inactive: no binding seen
18,B18,inactive: no binding seen
19,B19,inactive: no binding seen
20,B20,inactive: no binding seen
21,B21,inactive: no binding seen
22,B22,inactive: no binding seen
23,B23,inactive: no binding seen
24,B24,inactive: no binding seen

# An excerpt of these results, tab-delimited:
row	Binder	apparent Kd
10	B10	inactive: no binding seen
11	B11	inactive: no binding seen
12	B12	inactive: no binding seen
13	B13	inactive: no binding seen
14	B14	inactive: no binding seen
15	B15	inactive: no binding seen
16	B16	inactive: no binding seen
